Record: PubChem BioAssay AID743121 (NCATS, 2013)
This is an unselected part of about 26,000 reagents tested. 167 of all reagents (0.63%) count as active. 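Calls are per gene from RSA p-values that are not deposited; an individual active-marked siRNA can sensitise only weakly.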 Entries without a mark were called inactive. The numbers tell different reagents against one gene apart.

Test: 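Partners whose loss is lethal together with topoisomerase I blockade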 (primary screen)
Cell system: MDA-MB-231 cells, a human breast cancer line
Reagent: single siRNA against human genes, 20 nM siRNA (0.8 pmol per well)
Timing: 120 h (drug added 48 h after transfection, read 72 h later)
Treatment: camptothecin 20 nM (about EC30) for 72 h; vehicle 0.1% DMSO in parallel plates
Measurement: 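CellTiter-Glo ATP signal, scaled to control siRNA as percent viability; sensitisation given as log2 of untreated divided by camptothecin-treated viability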
Scale: log2 vehicle/camptothecin viability: higher = stronger sensitisation to camptothecin; viability with camptothecin and viability without drug: higher = more viable cells
Hit rule: 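Each gene scored by redundant siRNA activity (RSA) over its individual siRNA ratios; a gene is called active at p < 0.001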

gene symbol	reagent	log2 vehicle/camptothecin viability	viability with camptothecin (% of control)	viability without drug (% of control)
MIDN (GeneID 90007)	1	0.365	54.8	70.6
MIDN (GeneID 90007)	2	-0.0481	66.4	64.2
MIDN (GeneID 90007)	3	0.463	41.6	57.3
MIDN (GeneID 90007)	4	0.0621	66.5	69.4
ITLN1 (GeneID 55600)	1	-0.185	91.9	80.9
ITLN1 (GeneID 55600)	2	0.0763	79.3	83.6
ITLN1 (GeneID 55600)	3	0.0674	30.6	32.1
ITLN1 (GeneID 55600)	4	-0.373	86	66.4
CPOX (GeneID 1371)	1	-0.333	83	65.9
CPOX (GeneID 1371)	2	-0.263	119	99.3
CPOX (GeneID 1371)	3	-0.291	124	102
CPOX (GeneID 1371)	4	-0.271	82.2	68.1
TMPRSS15 (GeneID 5651)	1	-0.153	65.3	58.7
TMPRSS15 (GeneID 5651)	2	-0.124	62.6	57.5
TMPRSS15 (GeneID 5651)	3	-0.388	118	89.8
TMPRSS15 (GeneID 5651)	4	-0.193	62.2	54.4
UBE2N (GeneID 7334)	1	0.195	72	82.4
UBE2N (GeneID 7334)	2	-0.299	65.6	53.3
UBE2N (GeneID 7334)	3	-0.341	67.2	53
UBE2N (GeneID 7334)	4	0.125	101	110
LRRC57 (GeneID 255252)	1	-0.608	67.2	44.1
LRRC57 (GeneID 255252)	2	-0.0845	89.1	84.1
LRRC57 (GeneID 255252)	3	-0.798	72.5	41.7
CDK17 (GeneID 5128)	1	-0.000476	77.9	77.9
CDK17 (GeneID 5128)	2	-0.519	117	81.5
CDK17 (GeneID 5128)	3	0.309	71.3	88.4
CDK17 (GeneID 5128)	4	-0.114	45.7	42.3
ADCK1 (GeneID 57143)	1	-0.0562	96.7	93.1
ADCK1 (GeneID 57143)	2	0.434	34.9	47.2
ADCK1 (GeneID 57143)	3	-0.196	86.8	75.8
ADCK1 (GeneID 57143)	4	-0.482	61.3	43.9
